From article PMC6401474
Where two headings read alike, the source gives them in different places. These are yes or no findings as the source states them, for the method shown. Binding seen in cells or lysates may run through a third protein. Some entries that bind do so weakly or less than the wild type. For part of these data: Where a sequence is shown, tags or fusion partners need not be part of it.

Protein sequences, listed by entry. Tags and fused reporters are not part of them.
UniProt P15682: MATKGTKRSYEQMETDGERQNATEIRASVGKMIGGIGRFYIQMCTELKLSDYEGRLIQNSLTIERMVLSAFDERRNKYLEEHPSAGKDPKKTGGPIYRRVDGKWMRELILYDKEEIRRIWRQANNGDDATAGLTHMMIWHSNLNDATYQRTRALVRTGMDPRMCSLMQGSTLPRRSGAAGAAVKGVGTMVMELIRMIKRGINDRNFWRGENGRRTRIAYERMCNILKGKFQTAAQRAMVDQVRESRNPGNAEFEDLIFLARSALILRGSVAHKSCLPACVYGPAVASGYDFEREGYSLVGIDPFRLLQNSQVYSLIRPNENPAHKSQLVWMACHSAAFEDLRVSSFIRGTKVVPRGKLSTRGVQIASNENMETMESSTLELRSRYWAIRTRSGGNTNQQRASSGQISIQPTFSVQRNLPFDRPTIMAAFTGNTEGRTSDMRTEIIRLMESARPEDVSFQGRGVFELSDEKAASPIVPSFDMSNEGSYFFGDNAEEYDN
UniProt Q8IYM9: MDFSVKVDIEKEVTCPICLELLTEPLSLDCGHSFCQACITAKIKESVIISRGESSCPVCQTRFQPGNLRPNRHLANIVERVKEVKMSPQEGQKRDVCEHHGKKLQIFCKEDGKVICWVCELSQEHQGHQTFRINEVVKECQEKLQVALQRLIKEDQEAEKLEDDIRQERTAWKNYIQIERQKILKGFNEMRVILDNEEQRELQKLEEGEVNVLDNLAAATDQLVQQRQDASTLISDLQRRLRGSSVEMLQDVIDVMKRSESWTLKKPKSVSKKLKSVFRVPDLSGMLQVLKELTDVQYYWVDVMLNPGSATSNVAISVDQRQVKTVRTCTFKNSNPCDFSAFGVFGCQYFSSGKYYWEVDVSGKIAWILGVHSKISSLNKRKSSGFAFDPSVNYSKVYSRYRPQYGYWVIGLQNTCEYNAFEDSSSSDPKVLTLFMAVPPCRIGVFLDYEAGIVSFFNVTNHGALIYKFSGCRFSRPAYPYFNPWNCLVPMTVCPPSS

Tests used:
[1] = biological target: NP-GlucC and GlucC-NP (influenza A virus (strain not stated for the Gluc fusions)) (UniProt P15682); test: split reporter
[2] = biological target: NP-GlucC and GlucC-NP (influenza A virus (strain not stated for the Gluc fusions)) (UniProt P15682); test: split reporter; remark: listed apart in the source
[3] = biological target: Flag-NP (influenza A/WSN/33 virus) (UniProt P15682); test: co-IP

With TRIM22 (from UniProt Q8IYM9 1-498) the binding [1] was “binds”.

B1: TRIM14-GlucN and GlucN-TRIM14 (protein, UniProt Q14142 1-442)
chain: MAGAATGSRTPGRSELVEGCGWRCPEHGDRVAELFCRRCRRCVCALCPVLGAHRGHPVGLALEAAVHVQKLSQECLKQLAIKKQQHIDNITQIEDATEKLKANAESSKTWLKGKFTELRLLLDEEEALAKKFIDKNTQLTLQVYREQADSCREQLDIMNDLSNRVWSISQEPDPVQRLQAYTATEQEMQQQMSLGELCHPVPLSFEPVKSFFKGLVEAVESTLQTPLDIRLKESINCQLSDPSSTKPGTLLKTSPSPERSLLLKYARTPTLDPDTMHARLRLSADRLTVRCGLLGSLGPVPVLRFDALWQVLARDCFATGRHYWEVDVQEAGAGWWVGAAYASLRRRGASAAARLGCNRQSWCLKRYDLEYWAFHDGQRSRLRPRDDLDRLGVFLDYEAGVLAFYDVTGGMSHLHTFRATFQEPLYPALRLWEGAISIPRLP
For B1, the binding [2] was “binds”.

B2: HA-TRIM14 (protein, UniProt Q14142 1-442)
chain: MAGAATGSRTPGRSELVEGCGWRCPEHGDRVAELFCRRCRRCVCALCPVLGAHRGHPVGLALEAAVHVQKLSQECLKQLAIKKQQHIDNITQIEDATEKLKANAESSKTWLKGKFTELRLLLDEEEALAKKFIDKNTQLTLQVYREQADSCREQLDIMNDLSNRVWSISQEPDPVQRLQAYTATEQEMQQQMSLGELCHPVPLSFEPVKSFFKGLVEAVESTLQTPLDIRLKESINCQLSDPSSTKPGTLLKTSPSPERSLLLKYARTPTLDPDTMHARLRLSADRLTVRCGLLGSLGPVPVLRFDALWQVLARDCFATGRHYWEVDVQEAGAGWWVGAAYASLRRRGASAAARLGCNRQSWCLKRYDLEYWAFHDGQRSRLRPRDDLDRLGVFLDYEAGVLAFYDVTGGMSHLHTFRATFQEPLYPALRLWEGAISIPRLP
For B2, the binding [3] was “binds”.
